These results are taken from paper PMC2948501.

These are yes or no findings as the source states them, for the method shown. Binding seen in cells or lysates may run through a third protein. Where a sequence is shown, tags or fusion partners need not be part of it.

Test [1] concerns the target T1, Smac56-V5, stably expressed in the cytosol (Ub-Smac56-V5, IRES2.eGFP) (human), Q9NR28.
T1 chain: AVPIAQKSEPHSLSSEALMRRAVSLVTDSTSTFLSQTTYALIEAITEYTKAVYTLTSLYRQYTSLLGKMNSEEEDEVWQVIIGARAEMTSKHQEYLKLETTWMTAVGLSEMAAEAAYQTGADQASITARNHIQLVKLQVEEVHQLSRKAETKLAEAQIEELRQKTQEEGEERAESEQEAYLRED
In words: co-IP; pellets of 911 cells transiently expressing a FLAG-IAP combined with cells transiently or stably expressing Ub-Smac56-V5 (stable lines treated 12 h with 20 µM zIEALal), lysed together (150 mM NaCl, 20 mM Tris-HCl pH 7.5, 0.2% NP-40); immunoprecipitation with polyclonal V5 antibody and protein A/G agarose; western blot for FLAG. The settings on record: remark: other sources report otherwise.

The target in test [2] is T2, Smac56-V5, transiently expressed from Ub-Smac56-V5 (IRES2.eGFP) (human), Q9NR28.
T2 chain: T1 chain
Described as above. Conditions: remark: other sources report otherwise.

B1: FLAG-tagged Livin alpha (p3XFLAG.CMV10), Q96CA5-1 1-298 (protein)
chain: MGPKDSAKCLHRGPQPSHWAAGDGPTQERCGPRSLGSPVLGLDTCRAWDHVDGQILGQLRPLTEEEEEEGAGATLSRGPAFPGMGSEELRLASFYDWPLTAEVPPELLAAAGFFHTGHQDKVRCFFCYGGLQSWKRGDDPWTEHAKWFPSCQFLLRSKGRDFVHSVQETHSQLLGSWDPWEEPEDAAPVAPSVPASGYPELPTPRREVQSESAQEPGGVSPAEAQRAWWVLEPPGARDVEAQLRRLQEERTCKVCLDRAVSIVFVPCGHLVCAECAPGLQLCPICRAPVRSRVRTFLS
With B1, the binding result in test [1] and in test [2] was “no binding” each time.
